System: T1, Ta_PYL2DS_FL (with TaABI1)
T1 construct: full-length receptor (214 residues), codon-optimised, N-terminal His tag, E. coli; TaABI1 N-terminal His tag, E. coli; receptor:PP2C 10:1; with Protein phosphatase 2C ABI1
Assay: receptor-mediated PP2C inhibition, 4-methylumbelliferyl phosphate fluorescence
Type: biochemical, Triticum aestivum
Details: 0.1 uM ligand; TaABI1 (same result with AtABI1), receptor:PP2C 10:1, Mn2+, pH 7.9, 30 °C

SMILES	% decrease in PP2C activity
CO[C@]1(/C=C/C(C)=C\C(=O)O)C(C)=CC(=O)CC1(C)C [PBI352]	~ 30%
CO[C@@]1(/C=C/C(C)=C\C(=O)O)C(C)=CC(=O)CC1(C)C [PBI354]	~ 0%

Source: paper PMC5068739 (PLoS ONE, 2016)
